# “And” between values parts separate entries of the source, which are not always exact repeats. Identical values can stand only once. The whole screen tested about 320,000 compounds, of which about 22,000 (6.9%) were called active. Inconclusive results, whose numbers are uncertain, are shown with a selection of clear calls. Calls follow the shape of the dose curve; as a rule, active = well fitted inhibition curve with a large enough effect; inconclusive = small, poorly fitted or top-dose-only effect, or another doubt; inactive = no such curve, though single readings can be large or run the other way. Potencies of inconclusive entries are doubtful fits and often do not repeat.
# Assay: Primary qHTS for delayed death inhibitors of the malarial parasite plastid, 96 hour incubation
# Settings: P. falciparum luciferase reporter growth; series mostly up to 28.7 µM; activity change, negative = inhibition: at the top concentration
# Method in brief: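 Erythrocytes infected with luciferase-expressing P. falciparum were dispensed at 2% hematocrit and 0.05% parasitemia (final), then incubated with compounds 96 hours at 37 C in 5% CO2. Luminescence after detection reagent addition reported growth.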
# % is scaled to controls: 0 for no effect and ±100 for the full control effect; potency is read from the fitted curve at half-maximal effect.
SMILES,"activity change, negative = inhibition",Potency
C/C(=N\NC(=O)c1cccc(S(=O)(=O)N2CCOCC2)c1)c1cc2ccccc2o1,inactive: 7.5%,
O=C(Nc1ccc2c(c1)OCCO2)c1cccnc1Oc1ccccc1,,"inconclusive: 14.7 µM [inhibitor, single point]"
CN(C)c1ccc2c3c(cccc13)C(=O)N(c1ccccc1)C2=O,inactive: 79.8%,
Cc1ccccc1C(=O)N1CCC(C(=O)NN2C(=O)NC3(CCCCC3)C2=O)CC1,inactive: 16.7%,
O=C(CCCc1cccs1)Nc1nccs1,inactive: 0.439%,
CC(C)(C)C(=O)Nc1scc(-c2ccc(-c3ccccc3)cc2)c1C(=O)O,inactive: -1.88%,
Cc1ccc(S(=O)(=O)N2CCN(CC(=O)N/N=C\c3ccncc3)CC2)cc1,,"inconclusive: 11.7 µM [inhibitor, partial curve, poor fit]"
COc1ccc(NC(=O)C(C)SCc2ccccc2)cc1 (centres undefined),,"inconclusive: 9.28 µM [inhibitor, single point]"
Cc1[nH]n(C(N)=S)c(=O)c1N=Nc1ccc2ccccc2c1,,active: 4.65 µM
COc1ccc(NC(=O)N2CCC3(CC2)OCCO3)cc1OC,,"inconclusive: 11.7 µM [inhibitor, single point]"
O=C(NCCn1c(C(F)(F)F)nc2cc(C(F)(F)F)ccc21)[C@H]1CCCN1c1nc(CN2CCCCC2)cs1,,"inconclusive: 18.5 µM [inhibitor, single point]"
Cc1nc(SCC(=O)Nc2cccc(C(=O)O)c2)n[nH]1,inactive: 48.5%,
CC1CCCN(S(=O)(=O)c2cccc([N+](=O)[O-])c2)C1 (centres undefined),,"inconclusive: 14.7 µM [inhibitor, single point]"
Cc1nc2ccccc2c2oc(C(=O)N3CCc4ccccc4C3)cc12,,"inconclusive: 10.4 µM [inhibitor, single point]"
COc1ccc(NC(=O)C(c2ccc(OC)cc2)N(C)C(=O)Cc2cccs2)cc1 (centres undefined),,"inconclusive: 4.65 µM [inhibitor, single point]"
CCCCn1c(=O)c2c(O)cc(=O)oc2c2ccccc21,,"inconclusive: 18.5 µM [inhibitor, single point]"
CC(=O)CCc1c(C)nc2ccc(C(=O)O)cc2c1Cl,inactive: -0.541%,
COc1ccc(C2CN(C)CC2C(=O)c2ccc(C)cc2)cc1Cl (centres undefined),,"inconclusive: 2.08 µM [inhibitor, partial curve, poor fit]"
COc1cccc(NC(=O)C(C)N2C(=O)c3ccccc3C2=O)c1 (centres undefined),,"inconclusive: 4.15 µM [inhibitor, partial curve, poor fit]"
Cc1ccc(C(=O)OCC(=O)N(C)c2c(N)n(Cc3ccccc3)c(=O)[nH]c2=O)s1,inactive: 14.2%,
COc1ccc(C(=O)c2ccsc2N)cc1,inactive: 127%,
O=[N+]([O-])c1ccccc1N/N=C\c1ccccc1Cl,inactive: 307%,
COc1ccccc1N1CCN(S(=O)(=O)CCNC(=O)c2cc(=O)c3ccccc3o2)CC1,inactive: -23%,
CCC(C)(C)n1nnnc1C(c1ccccc1)N1CCN(Cc2ccccc2)CC1 (centres undefined),,"inconclusive: 18.5 µM [inhibitor, single point]"
NC(=O)Nc1ccc(C(=O)OCC(=O)N2CCc3ccccc3C2)cc1,,"inconclusive: 10.4 µM [inhibitor, single point]"

SMILES,"activity change, negative = inhibition",Potency
O=C(CC1SC(=NCCc2ccccc2)N(/N=C/c2cccs2)C1=O)Nc1ccc(Cl)cc1 (centres undefined),,"inconclusive: 18.5 µM [inhibitor, partial curve, poor fit]"
COc1cccc(-c2cn(-c3cccc(C(F)(F)F)c3)c(=S)[nH]2)c1,,"inconclusive: 1.17 µM [inhibitor, partial curve, poor fit]"
CCNS(=O)(=O)c1ccc(Br)c(OC)c1,inactive: 20.3%,
COc1ccc(C2CC(c3ccc(OC)c(OC)c3)=NN2C(=O)c2ccccc2)cc1 (centres undefined),,"inconclusive: 18.5 µM [inhibitor, single point]"
COc1ccc2nc(N/C(N)=N/C(=S)Nc3ccccc3)nc(C)c2c1,inactive: 2.54%,
O=C(CCN1C(=O)C2C3C=CC(C3)C2C1=O)N1CCCCC1 (centres undefined),,"inconclusive: 1.85 µM [inhibitor, full curve, poor fit]"
C=C1CCN(CC(=O)OC)S(=O)(=O)c2ccccc21,,"inconclusive: 10.4 µM [inhibitor, single point]"
COc1ccc(C(CNC(=O)COc2cc(C)c(Cl)c(C)c2)N2CCCCC2)cc1 (centres undefined),inactive: 9.82%,
O=S(=O)(c1ccc(Cl)cc1)N(Cc1ccccn1)Cc1ccccn1,inactive: -13.3%,
Cc1ccsc1C(=O)N/N=C/c1ccc2c(c1)OCO2,inactive: 413%,
CC(C)C(C(=O)NC1=NCCS1)c1ccc(Cl)cc1 (centres undefined),,"inconclusive: 4.15 µM [inhibitor, partial curve]"
Brc1ccc(Nc2nc3ccccc3n3nnnc23)cc1,,"inconclusive: 3.7 µM [inhibitor, full curve, poor fit]"
COc1cc(C=C2C(=O)NC(=O)NC2=O)ccc1OCc1ccc([N+](=O)[O-])cc1,inactive: -3.23%,
COc1ccc(NC(=O)NCCC2=CCCCC2)cc1,inactive: 33.2%,
CC(=O)N1CCc2c(sc(NC(=O)c3ccc([N+](=O)[O-])o3)c2C#N)C1,,"inconclusive: 18.5 µM [inhibitor, single point]"
Cc1ccc(-c2cc(-c3ccc(C)cc3)[n+](-c3ccccc3)c(-c3ccc(C)cc3)c2)cc1,,active: 0.294 µM
Nc1c(C(=O)N/N=C/c2ccc(OCc3ccccc3)cc2)cnn1-c1ccccc1,inactive: 17.2%,
O=C(Nc1nsc(-c2ccccc2)n1)c1ccncc1,,"inconclusive: 1.47 µM [inhibitor, full curve, poor fit]"
C[C@H](NC(=O)c1[nH]cnc1C(=O)Nc1ccon1)c1ccccc1,,"inconclusive: 3.29 µM [inhibitor, single point]"
C=CCOc1c(Cl)cc(CNCCCN2CCOCC2)cc1OC,,"inconclusive: 11.7 µM [inhibitor, single point]"
CC1C(=O)N2CCCc3cc(NC(=O)C(=O)NCc4cccnc4)cc1c32 (centres undefined),,"inconclusive: 1.31 µM [inhibitor, partial curve, poor fit]"
Cc1ccc(CCNC(=O)C2CCN(C(=O)c3sccc3-n3cccc3)CC2)cc1,,"inconclusive: 18.5 µM [inhibitor, partial curve, poor fit]"
COc1ccc(NC(=O)CCCC2=NS(=O)(=O)c3ccccc3N2)cc1,,"inconclusive: 14.7 µM [inhibitor, partial curve, poor fit]"
Cc1cccc(C)c1NC(=O)COC(=O)c1ccc2[nH]c3c(c2c1)CCCC3,inactive: -0.663%,
O=c1[nH]c(=O)n(C2CCCCCC2)c(O)c1C=NCc1cccnc1,,"inconclusive: 16.5 µM [inhibitor, partial curve, poor fit]"

SMILES,"activity change, negative = inhibition",Potency
O=C(CSCc1ccc(Cl)cc1)Nc1ccc(O)cc1C(=O)O,inactive: 380%,
N#Cc1ccccc1NC(=O)CC1c2ccccc2Oc2ccccc21,,"inconclusive: 0.0029 µM [inhibitor, full curve, poor fit]"
CCOC(=O)/C=C/C(=O)Nc1nccs1,inactive: 85.7%,
C/C(=N\Nc1cccc2cccnc12)c1ccc(N)cc1,inactive: 41.3%,
Cc1ccc(OCC(=O)NNc2c3ccccc3nc3ccccc23)cc1,,"inconclusive: 1.65 µM [inhibitor, full curve]"
O=c1c2ccccc2nc2n1CCC2O (centres undefined),inactive: 37.6%,
CC1Cc2nc(SCC(=O)Nc3ccc4c(c3)OCO4)n(-c3ccc(F)cc3)c(=O)c2S1 (centres undefined),,active: 3.7 µM
COCCNC(=O)CN(C(=O)Cn1nnc2ccccc21)c1cccc(C)c1C,,"inconclusive: 16.5 µM [inhibitor, single point]"
C=CCn1cc(C(=O)NCc2cccnc2)c(=O)c2cc(S(=O)(=O)N(CC)CC)ccc21,inactive: 29.4%,
OC[C@H]1OC(O)[C@@H](O)[C@@H](O)[C@@H]1O (some centres undefined),inactive: 54.2%,
O=C(Nc1ccccc1)NN(C(=O)CCl)c1ccccc1,,"inconclusive: 10.4 µM [inhibitor, single point]"
CSC1=NC2(CCCCC2)C2=C(CCCC2)N1,,"inconclusive: 11.7 µM [inhibitor, single point]"
CCOc1ccc(CNc2cccc(SC)c2)cc1,inactive: 7.36%,
Cc1ccc(-c2nn(-c3ccccc3)cc2/C=N/NC(=O)c2ccc3c(c2)OCO3)cc1,,"inconclusive: 10.4 µM [inhibitor, single point]"
CCCCCOc1ccc(/C=C/c2c([N+](=O)[O-])c(=O)n(C)c(=O)n2C)cc1,,"inconclusive: 3.29 µM [inhibitor, partial curve, poor fit]"
CCOc1ccc(S(=O)(=O)N2CCCC(C(=O)NC3CCCC3)C2)cc1 (centres undefined),inactive: -12.2%,
COCc1cc(C)nc(SCC(=O)Nc2ccccc2C)c1C#N,,"inconclusive: 3.29 µM [inhibitor, full curve, poor fit]"
COc1ccc2sc(NC(=O)CC(C)C)nc2c1,,"inconclusive: 14.7 µM [inhibitor, single point]"
O=C(c1cccnc1)C1Cc2ccccc2C1=O (centres undefined),,active: 7.38 µM
O=[N+]([O-])c1ccc(N2CCCCC2)c(Cl)c1N1CCCCC1,,"inconclusive: 2.94 µM [inhibitor, full curve, poor fit]"
COc1cccc(-c2nc(N3CCN(Cc4ccccc4)CC3)c3ccccc3n2)c1O,,"inconclusive: 11.7 µM [inhibitor, single point] and inconclusive: 2.33 µM [inhibitor, full curve, poor fit]"
C/C(=N\NC(=O)C(O)c1ccccc1)c1ccc(Cl)s1 (centres undefined),,"inconclusive: 18.5 µM [inhibitor, single point]"
Cc1c(CN(C)C(=O)/C=C/c2ccc([N+](=O)[O-])cc2)cnn1C,inactive: 244%,
N#CC1=C(N)Oc2c(c(=O)sc3ccccc23)C1c1cccnc1 (centres undefined),inactive: 12.2%,

# Source: PubChem BioAssay AID504834 (National Center for Advancing Translational Sciences (NCATS), 2011)
